These are yes or no findings as the source states them, for the method shown. Some entries that bind do so weakly or less than the wild type.
Assays:
mouse PD-1 [1] = target: T1, mouse PD-1 (mouse, UniProt Q02242 25-167, limits assumed); assay: SPR (Biacore), antibody as immobilised ligand, mouse PD-1 as analyte at 0, 62.5, 125, 500, 500 and 1000 nM according to the legend; traces not labelled
T1 construct: Analyte in solution in the Biacore runs
T1 sequence: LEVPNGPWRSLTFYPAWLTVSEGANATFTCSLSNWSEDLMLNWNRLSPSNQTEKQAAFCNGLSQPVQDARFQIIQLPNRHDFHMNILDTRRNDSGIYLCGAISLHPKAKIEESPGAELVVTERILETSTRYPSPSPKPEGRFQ

Chains of the proteins cited; added tags and fusions are not shown. Lines headed by an entry give the natural chain unless they say otherwise; changes in a name come on top.
UniProt Q15116: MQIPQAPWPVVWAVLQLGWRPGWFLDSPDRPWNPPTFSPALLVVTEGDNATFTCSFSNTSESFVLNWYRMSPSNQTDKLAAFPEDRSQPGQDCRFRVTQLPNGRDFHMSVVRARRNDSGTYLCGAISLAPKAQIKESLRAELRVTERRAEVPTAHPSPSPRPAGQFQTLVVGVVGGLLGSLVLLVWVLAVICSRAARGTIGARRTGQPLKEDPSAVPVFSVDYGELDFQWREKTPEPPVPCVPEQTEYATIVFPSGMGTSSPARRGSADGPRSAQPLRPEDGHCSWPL

human PD-1 = target: T2, human PD-1 (human, UniProt Q15116 25-167, limits assumed); assay: SPR (Biacore), antibody as immobilised ligand, human PD-1 as analyte at 0, 125, 250, 500, 500 and 1000 nM according to the legend; traces not labelled
T2 construct: Analyte in solution in the Biacore runs; also called programmed cell death protein 1

[2] = target: mouse PD-1 expressed on cells (murine EL4 cells; CD4 T cells from wild-type mice) (mouse) (UniProt Q02242); assay: flow cytometry on murine EL4 cells that constitutively express PD-1, PE-labelled secondary detection
human PD-1-Fc [3] = target: T3, human PD-1-Fc (human, UniProt Q15116 25-170, limits assumed); assay: ELISA on human PD-1-Fc (FIG. 10)
T3 construct: ELISA antigen

[4] = target: mouse PD-1 expressed on cells (murine EL4 cells; CD4 T cells from wild-type mice) (mouse) (UniProt Q02242); assay: flow cytometry on mouse CD4 T cells, PD-1 KO cells as negative control (FIG. 11A, 11B)
[5] = target: mouse PD-1 expressed on cells (murine EL4 cells; CD4 T cells from wild-type mice) (mouse) (UniProt Q02242); assay: flow cytometry on CD4 T cells from WT mice; CD4 T cells from PD-1 KO mice (FIG. 11A) as specificity control
human PD-1-Fc [6] = target: T3, human PD-1-Fc; assay: ELISA, binding to human PD-1-Fc
mouse PD-1 [7] = target: T1, mouse PD-1; assay: SPR (Biacore), antibody as immobilised ligand, mouse PD-1 as analyte at 0, 62.5, 125, 250, 500, 500 and 1000 nM according to the legend; traces not labelled
[8] = target: mouse PD-1 expressed on cells (murine EL4 cells; CD4 T cells from wild-type mice) (mouse) (UniProt Q02242); assay: flow cytometry on EL4 cells (FIG. 6D)
[9] = target: mouse PD-1 expressed on cells (murine EL4 cells; CD4 T cells from wild-type mice) (mouse) (UniProt Q02242); assay: flow cytometry on EL4 cells, MFI bar graph, purified antibody at 0.5 ug and 2 ug
[10] = target: mouse PD-1 expressed on cells (murine EL4 cells; CD4 T cells from wild-type mice) (mouse) (UniProt Q02242); assay: flow cytometry on EL4 cells (FIG. 6B)

Measured: binding

B1: monoclonal antibody 4G9 (antibody, mouse IgG2b, kappa, V domains shown)
VH: QIQLVQSGPELKKPGETVKISCKASGYTFTTYGMTWVKQAPGKGLKWMGWINTYSGVPTYADDFKGRFAFSLETSASTAYLQINNLKNEDTATYFCARGGRGFAYWGQGTLVTVSA
VL: DILLTQSPAILSVSPGERVSFSCRASQSIGTSIHWYQQRTNGSPRLLIKYASESISGIPSRFSGSGSGTDFTLSINSVESEDIADYYCQQSNSWPYTFGGGTKLEIKR
notes: also called 4G9 anti-PD-1 antibody
binds: mouse PD-1 [1] | human PD-1

B2: monoclonal antibody 5C2 (antibody, IgG1, V domains shown)
VH: QVQLQQPGAELVKPGASVKVSCKASGYTFTSYWMHWVKQRPGQGLEWIGRIHPSDSDTNYNQKFKGKATLTVDKSSSTAYMQLSSLTSEDSAVYYCAPYGNYASGFAYWGQGTLVTVSA
VL: DIVMTQSHKFMSTSVGDRVSITCKASQDVSTAVAWYQQKPGQSPKLLIYWASTRHTGVPDRFTGSGSGTDYTLTISSVQAEDLALYYCQQHYSTPWTFGGGTKLEIKR
notes: the two clones are reported with different SPR values; also called 5C2 anti-PD-1 antibody
not listed: mouse PD-1 [1] | human PD-1
binds: all other assays above
